Laboratory results as given in patent publication US9085602B1, “Facial amphiphiles and methods of use” (The Scripps Research Institute, priority 2008, dated 2015).
Some entries share one result that the patent states for a list of compounds. For at least one compound, name, drawing or mass did not settle the structure.

Experiment: Critical micelle concentration (CMC) by ANS fluorescence dye binding
Type: physicochemical
Details: relative to compound A1
Experimental: See De Vendittis et al., Anal. Biochem. 1981, 115, 278-86. The molecule ANS has a weak fluorescence in detergent concentrations below CMC, but becomes highly fluorescent when incorporated into the hydrophobic micellar environment. […] The emission fluorescence intensities at 465 nm were recorded (λex=405 nm) on a DXT880 multiplate spectrofluorimeter (Beckman Coulter). The CMC is defined as the breakpoint in the fluorescence (FIG. 4).
See also De Vendittis et al., Anal. Biochem. 1981, 115, 278-86.

## C[C@H](CCC(=O)NCCC[N+](C)(C)CC(O)CS(=O)(=O)[O-])[C@H]1CC[C@H]2[C@@H]3[C@H](O)C[C@@H]4C[C@H](O)CC[C@]4(C)[C@H]3C[C@H](O)[C@]12C (stereo partly shown) [CHAPSO, 3-[(3-cholamidopropyl)-dimethylammonio]-2-hydroxy-1-propanesulfonate]
  CMC, times greater than compound A1: 80-140 times
